Results as given in patent US20260265525A1, “DEVELOPMENT OF HIGHLY FLUOROGENIC STYRENE PROBES FOR VISUALIZING RNA IN LIVE CELLS” (UNIVERSITY OF SOUTHERN CALIFORNIA, priority 2023, published 2026).
Some of these results come from one statement about several compounds together. At least one compound was matched to its structure with a doubt left.

Legend:
[1] = Spectral and photophysical characterization of free dyes in T.E. buffer; format: physicochemical; details: versus MPI
Experimental: After the synthesis of the styrene dyes, their photophysical properties were evaluated. The spectral and photophysical properties (absorption, emission, molar absorptivity (ε), fluorescence quantum yield (ΦDF), and fluorescence enhancement) of probes 1a-1d were measured in DMSO and T.E. buffer (Tris-HCl, 1 mM EDTA, pH=7.5). FIG. 2D provides measurements of the fluorescent enhancement for several of the fluorescent probes.
Coumarin 6 was used as a reference dye for MPI, 1a, and 1b and Rhodamine 6G was used as a reference for 1c and 1d. Absorption spectra were collected by Shimadzu UV-1800 spectrophotometer. Samples were loaded in plastic disposable cuvette. Emission spectra were obtained by Photon Technology International QuantaMaster model C-60 Fluorimeter in 1×1 cm^2 quartz cuvettes. Fluorescence quantum yields were then calculated according to the method by Lawson-wood, Upstone, and Evans. (58) The torula yeast type IV RNA (Sigma) solution was prepared as a 200 μg/mL solution in T.E. buffer (Tris-HCl, EDTA, pH 7.6, Bioworld) without sonicating to avoid shearing of nucleic acids. All measurements were taken using samples with a final dye concentration of 10 μM.

HeLa cells = experiment: MTT assay for cytotoxicity; format: cell-based; details: 30 μM, 24 h incubation

SMILES | red shift of emission wavelength compared to MPI [1] | cells remaining viable (HeLa cells)
C[n+]1ccc(/C=C/c2cc3ccccc3[nH]2)cc1.[I-] [Dye 1b] | > 20 nm | –
C[n+]1ccc(/C=C/c2ccc3ccccn23)cc1.[I-] [Dye 1c] | – | > 70%
C[n+]1ccc(/C=C/c2ccn3ccccc23)cc1.[I-] [Dye 1d] | – | > 70%
